# According to PubChem BioAssay AID504847 (National Center for Advancing Translational Sciences (NCATS), 2011):
# By UniProt entry, the sequences of proteins in these tests, tags left out. Where a name states a change or a piece, a line headed by the entry shows the natural chain unless it says otherwise.
# UniProt P11473: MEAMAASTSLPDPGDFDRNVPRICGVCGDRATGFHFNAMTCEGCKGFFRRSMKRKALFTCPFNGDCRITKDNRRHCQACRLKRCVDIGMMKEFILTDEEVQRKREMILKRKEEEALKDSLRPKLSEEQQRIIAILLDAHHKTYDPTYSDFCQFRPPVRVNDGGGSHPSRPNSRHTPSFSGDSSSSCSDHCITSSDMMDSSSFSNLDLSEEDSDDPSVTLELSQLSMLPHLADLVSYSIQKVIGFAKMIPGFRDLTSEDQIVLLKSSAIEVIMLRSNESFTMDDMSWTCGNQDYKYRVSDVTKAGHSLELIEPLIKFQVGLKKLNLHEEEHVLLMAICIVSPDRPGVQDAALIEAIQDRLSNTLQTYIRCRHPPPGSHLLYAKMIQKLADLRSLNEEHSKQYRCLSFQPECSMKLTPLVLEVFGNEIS
# The campaign covered roughly 400,000 compounds. About 3,700 (0.93%) were called active. The inconclusive results got no clear call from the source; some entries with a clear call stand among them for comparison. Calls follow the shape of the dose curve; as a rule, active = well fitted inhibition curve with a large enough effect; inconclusive = small, poorly fitted or top-dose-only effect, or another doubt; inactive = no such curve, though single readings can be large or run the other way. Potencies beside an inconclusive call are fits to weak or partial responses and may not hold up.
# Molecular target: Vitamin D3 receptor (Homo sapiens) (UniProt P11473)
# Assay: Inhibitors of the vitamin D receptor (VDR): qHTS
# Conditions: VDR-SRC2-3 peptide fluorescence polarization, 2 h; max response, negative = inhibition: hits give low values
# Outline: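 Fluorescence polarization assay of small-molecule disruption of VDR binding to coregulator peptide SRC2-3. Compounds and controls pin-transferred, then read after 2 h incubation at ambient room temperature.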
# % is scaled to controls: 0 for no effect and ±100 for the full control effect; potency is read from the fitted curve at half-maximal effect.
Compound,Potency,"max response, negative = inhibition"
COC(=O)c1ccc(CNC(=O)C2CCC(=O)N(CCCc3ccccc3)C2)cc1 (stereo unspecified),"inconclusive: 20 µM [inhibitor, partial curve, poor fit]",–
COc1ccc(NC(=O)CSc2cn(CC(=O)N3CCOCC3)c3ccccc23)cc1OC,–,inactive: 7.13%
O=C(COC(=O)Cc1ccccc1F)Nc1ccc(Cl)cn1,"inconclusive: 28.2 µM [inhibitor, single point]",–
CCn1c(=O)oc2cc(NC(=O)CCl)ccc21,–,inactive: -13.6%
CCN(CC)CCN1C(=O)/C(=C\c2ccc(Cl)c([N+](=O)[O-])c2)SC1=Nc1ccc(OC)cc1,"inconclusive: 63.1 µM [inhibitor, partial curve, poor fit]",–
O=C(CSc1ncc(S(=O)(=O)c2ccc(Br)cc2)c(=O)[nH]1)NCc1ccc(Cl)cc1,–,inactive: -12.4%
O=S(=O)(NC(=S)NC1CCCCC1)c1cccs1,"inconclusive: 89.1 µM [inhibitor, single point]",–
CCN(CC)C(=O)c1sc(NC(=O)c2ccc(C)c([N+](=O)[O-])c2)c(C#N)c1C,–,inactive: -25%
C=CCn1c(O)c(CN2CCCCC2)c(C)c(C#N)c1=O,"inconclusive: 11.2 µM [inhibitor, partial curve, poor fit]",–
Cc1cccc(-n2c(C)cc(C(=S)N3CCOCC3)c2C)c1C,"inconclusive: 79.4 µM [inhibitor, single point]",–
CCOc1ccccc1/C=N/NC(=O)c1nnn(-c2nonc2N)c1CN1CCCCCC1,–,inactive: -5.26%
CCOC1Cc2ccccc2N(C(N)=O)c2ccccc21 (stereo unspecified),–,inactive: -19.3%
O=C(c1ccco1)n1nc(-c2ccccc2)nc1NCc1ccco1,"inconclusive: 39.8 µM [inhibitor, partial curve, poor fit]",–
CCN(CC)C(=O)C1=C(C)NC(=S)NC1c1ccc(C)s1 (stereo unspecified),–,inactive: -18.2%
Cc1cc(NS(=O)(=O)c2ccc(NC(=O)/C=C/c3ccccc3)cc2)nc(C)n1,–,inactive: -9.11%
COc1cc(O)c(C(=O)/C=C/c2ccc(OC)c(O)c2)c(OC)c1,"inconclusive: 20 µM [inhibitor, full curve]",–
COc1ccc(NC(=O)CSc2nnc(C3CC3)n2C)cc1,active: 28.2 µM,–
Cc1cccc(NC(=O)C(=O)NCC(c2ccc3c(c2)OCO3)N2CCOCC2)c1C (stereo unspecified),–,inactive: -6.84%
Cc1ccc(CNC(=O)CSCc2cccc(F)c2)cc1,"inconclusive: 70.8 µM [inhibitor, single point]",–
COc1cc(OC)c(OC)cc1/C=C1/C(=O)N=C(N)N1C,"inconclusive: 22.4 µM [inhibitor, partial curve, poor fit]",–
COc1ccc(N2CCN(CC(O)COC(c3ccc(F)cc3)c3ccc(F)cc3)CC2)cc1 (stereo unspecified),–,inactive: -1.72%
CC/C(=C/c1sc2ccc(C)cc2[n+]1CCO)SC,"inconclusive: 8.91 µM [inhibitor, full curve, poor fit]",–

Compound,Potency,"max response, negative = inhibition"
Cc1nc2sc(C(c3ccco3)N3CCN(c4ccccc4F)CC3)c(O)n2n1 (stereo unspecified),–,inactive: 9.89%
CC(C)C(=O)Nc1cccnc1,–,inactive: -2.01%
Clc1cccc(N2CCN(c3ncnc4c3nc3n4CCCCC3)CC2)c1,"inconclusive: 89.1 µM [inhibitor, single point]",–
CC(=O)c1cc(O)c2ccccc2c1O,active: 31.6 µM,–
COc1cc(/C=C2/C(=O)ON=C2C)ccc1OCc1cccc(F)c1,active: 25.1 µM,–
CC(C)CCNC(=O)NC(=O)COC(=O)/C=C/c1cc(Br)ccc1F,"inconclusive: 22.4 µM [inhibitor, single point]",–
Cc1nnc(NC(=O)c2ccc(S(=O)(=O)N(C)c3ccccc3)cc2)s1,–,inactive: 10.5%
COc1cc(OC)c2c(c1O)OC(c1ccccc1)CC2=O (stereo unspecified),"inconclusive: 100 µM [inhibitor, partial curve, poor fit]",–
CCC(=O)N(Cc1cc2cc(OC)ccc2[nH]c1=O)c1ccccc1C,"inconclusive: 89.1 µM [inhibitor, single point]",–
Cc1cc(C)c(Nc2nn3c(=O)c4cc5c(cc4nc3s2)OCO5)c(C)c1,"inconclusive: 79.4 µM [inhibitor, partial curve, poor fit]",–
O=C(O)/C=C/C(=O)Nc1ccc(C(=O)c2ccccc2)cc1,"inconclusive: 63.1 µM [inhibitor, partial curve, poor fit]",–
Nc1nc(NCc2ccccc2Cl)c2[nH]cnc2n1,–,inactive: 1.32%
O=C(CS(=O)(=O)c1ccccc1)Nc1ncc([N+](=O)[O-])s1,"inconclusive: 100 µM [inhibitor, single point]",–
CC(C)(C)OC(=O)[C@H](Cc1ccccc1)NC(=O)c1nc[nH]c1C(=O)N1CCN(c2ccccc2)CC1,"inconclusive: 89.1 µM [inhibitor, partial curve, poor fit]",–
C=CC[C@H](CC(=O)N(CCO)Cc1ccccc1)C(=O)N[C@H](C)COC(=O)[C@@H](CC=C)CC(=O)OC(C)(C)C,"inconclusive: 4.47 µM [inhibitor, partial curve, poor fit]",–
CCOc1ccc(OCCC(=O)OCC(=O)N2CCN(S(=O)(=O)c3ccc(C)cc3)CC2)cc1,–,inactive: 2.38%
CCOC(=O)C1=C(COC(=O)/C=C/c2cc(Br)ccc2F)NC(=O)NC1C (stereo unspecified),"inconclusive: 89.1 µM [inhibitor, single point]",–
CN1C/C(=C/c2ccsc2)C(=O)/C(=C/c2ccsc2)C1,"inconclusive: 20 µM [inhibitor, full curve]",–
CN(C)/N=C/C=C1\CCC/C(=C\c2ccc(F)c(F)c2)C1=O,"inconclusive: 50.1 µM [inhibitor, partial curve, poor fit]",–
Cc1ccc(N2NC(=O)/C(=C\c3cc4c(cc3[N+](=O)[O-])OCO4)C2=O)cc1C,active: 50.1 µM,–
CCN(C(=O)CSC1=Nc2ccccc2C2CC=NN12)C1CCS(=O)(=O)C1 (stereo unspecified),"inconclusive: 70.8 µM [inhibitor, partial curve, poor fit]",–
CC[C@@]1(C(=O)OC)N[C@H](CN(C)C(=O)Nc2ccc(C(F)(F)F)cc2)[C@@H]2C(=O)N(C)C(=O)[C@@H]21,"inconclusive: 89.1 µM [inhibitor, partial curve, poor fit]",–

# Rewritten with tabs: three of the compounds above
Compound	Potency	max response, negative = inhibition
Cc1cc(NS(=O)(=O)c2ccc(NC(=O)/C=C/c3ccccc3)cc2)nc(C)n1	–	inactive: -9.11%
COc1cc(O)c(C(=O)/C=C/c2ccc(OC)c(O)c2)c(OC)c1	inconclusive: 20 µM [inhibitor, full curve]	–
COc1ccc(NC(=O)CSc2nnc(C3CC3)n2C)cc1	active: 28.2 µM	–

# Continued:

Compound,Potency,"max response, negative = inhibition"
CCCC[C@@H](C)/C=C(C)/C=C(\C)C(=O)NC1=C[C@@](O)(/C=C/C=C/C=C/C(=O)NC2=C(O)CCC2=O)[C@@H]2O[C@@H]2C1=O,active: 2.24 µM,–
CN1/C(=C\C=C2/SC(=S)NC2=O)C(C)(C)c2ccccc21,"inconclusive: 50.1 µM [inhibitor, partial curve, poor fit]",–
Cc1ccc(OCC(=O)c2cc(C)n(C3CC3)c2C)c([N+](=O)[O-])n1,–,inactive: -9.05%
COc1ccccc1CCNC(=O)CSc1nnc2ccc(-c3ccncc3)nn12,–,inactive: -1.47%
NC(=S)c1cc2cc(Br)ccc2oc1=O,"inconclusive: 22.4 µM [inhibitor, full curve, poor fit]",–
COc1ccccc1CNC(=O)CCNC(=O)Cn1cnc2ccccc2c1=O,–,inactive: 0.304%
Cc1c(Cl)cnc(NC(=O)COC(=O)[C@@H](NC(=O)c2ccco2)C(C)C)c1Cl,"inconclusive: 79.4 µM [inhibitor, partial curve]",–
CC(C)N(c1ccccc1)c1ccc(NC(=O)CCl)cc1,"inconclusive: 70.8 µM [inhibitor, partial curve, poor fit]",–
CC(CC(=O)c1ccc(F)cc1)N1CCN(c2ccccc2)CC1 (stereo unspecified),"inconclusive: 100 µM [inhibitor, single point]",–
Cc1cc(C)c(C#N)c(SCc2ccccc2)n1,–,inactive: 10.4%
O=C(CN1CCN(Cc2ccccc2)CC1)c1ccc(Br)cc1,"inconclusive: 63.1 µM [inhibitor, partial curve, poor fit]",–
CC1CCN(CCc2nc3cc(NC(=O)COc4ccc(Cl)cc4)ccc3n2C)CC1,"inconclusive: 28.2 µM [inhibitor, single point]",–
CCOC(=O)c1c(/N=C/N(C)C)sc(/C=N/Nc2ccccc2)c1-c1ccc(Cl)cc1,"inconclusive: 25.1 µM [inhibitor, partial curve, poor fit]",–
CC(=O)Oc1ccc(/C=C2/C(=O)N(c3ccccc3)N=C2C)cc1,"inconclusive: 56.2 µM [inhibitor, partial curve, poor fit]",–
COc1ccc2c(c1)Cc1sc(NC(=O)c3ccccc3Br)nc1-2,"inconclusive: 50.1 µM [inhibitor, partial curve, poor fit]",–
Cn1ncc2c(O/N=C(\N)c3ccc(C(C)(C)C)cc3)ncnc21,–,inactive: -20.5%
CC(=O)N1c2ccc(S(=O)(=O)NCCC(=O)NCc3ccc(N(C)C)cc3)cc2CC1C (stereo unspecified),"inconclusive: 25.1 µM [inhibitor, partial curve, poor fit]",–
CCOc1cc(N2C(=O)CC3CS(=O)(=O)CC32)c(OCC)cc1NC(=O)c1ccccc1 (stereo unspecified),"inconclusive: 7.94 µM [inhibitor, single point]",–
COc1ccc(OCCCn2c(CCNC(=O)C3CCCCC3)nc3ccccc32)cc1,–,inactive: -12.6%
Cc1oc(-c2ccccc2F)nc1Cn1c(SCc2ccccc2F)nc2ccncc21,–,inactive: 2.28%
C(=C\c1ccccc1)/CSc1nnc(-c2cnccn2)n1Cc1ccco1,"inconclusive: 0.631 µM [inhibitor, full curve, poor fit]",–
COC(=O)C1=C(C)NC(=O)NC1c1ccc(-c2ccccc2Cl)o1 (stereo unspecified),–,inactive: 1.66%
